Measured values reported in PMC2694282.
No constants are given. Whether binding was seen depends on the method and setting. In cells and extracts the contact can be indirect. Some binding calls cover weakened binding; strength is not graded here.

By UniProt entry, the sequences of proteins in these tests, tags left out. Where a name states a change or a piece, a line headed by the entry shows the natural chain unless it says otherwise.
UniProt P09936: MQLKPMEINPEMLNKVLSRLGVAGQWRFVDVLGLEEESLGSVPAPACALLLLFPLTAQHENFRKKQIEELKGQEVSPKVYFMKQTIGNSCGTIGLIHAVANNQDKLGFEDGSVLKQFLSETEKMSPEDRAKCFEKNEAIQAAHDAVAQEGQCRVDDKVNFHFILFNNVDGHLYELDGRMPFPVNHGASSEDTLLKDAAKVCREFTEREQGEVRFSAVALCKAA
UniProt P35222: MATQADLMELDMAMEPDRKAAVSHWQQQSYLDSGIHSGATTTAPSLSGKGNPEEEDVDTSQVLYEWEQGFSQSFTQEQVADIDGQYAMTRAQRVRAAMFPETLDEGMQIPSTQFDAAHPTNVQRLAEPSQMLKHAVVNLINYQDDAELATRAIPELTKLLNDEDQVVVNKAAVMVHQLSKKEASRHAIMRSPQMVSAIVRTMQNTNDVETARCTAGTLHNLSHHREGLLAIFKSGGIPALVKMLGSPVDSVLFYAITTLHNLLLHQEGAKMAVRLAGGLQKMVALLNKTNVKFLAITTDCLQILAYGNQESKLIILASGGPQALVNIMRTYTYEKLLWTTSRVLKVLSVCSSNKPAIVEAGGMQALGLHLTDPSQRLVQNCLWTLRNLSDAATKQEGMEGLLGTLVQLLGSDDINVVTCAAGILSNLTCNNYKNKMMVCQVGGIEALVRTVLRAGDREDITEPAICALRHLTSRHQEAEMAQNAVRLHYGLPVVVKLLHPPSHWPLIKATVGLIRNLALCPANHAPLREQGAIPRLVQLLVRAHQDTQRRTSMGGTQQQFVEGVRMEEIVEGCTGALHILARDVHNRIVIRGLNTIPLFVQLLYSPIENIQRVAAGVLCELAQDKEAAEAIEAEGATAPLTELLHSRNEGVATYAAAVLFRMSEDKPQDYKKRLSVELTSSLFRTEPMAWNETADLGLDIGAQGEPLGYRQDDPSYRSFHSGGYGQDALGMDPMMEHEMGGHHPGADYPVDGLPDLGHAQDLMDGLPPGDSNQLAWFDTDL

Key:
HA-UCH L1 C90S = HA-UCH L1 C90S (UniProt P09936); test: co-IP; 293 cells transfected with HA-UCH L1 wild type or mutants; UCH L1 immunoprecipitated with HA antibody 48 h after transfection; blot probed with β-catenin antibody
HA-UCH L1 H161D = HA-UCH L1 H161D (UniProt P09936); test: as above
HA-UCH L1 wild type = HA-UCH L1 wild type (UniProt P09936); test: as above
[1] = target: Ubiquitin C-terminal Hydrolase L1 (endogenous) (human (endogenous in KR4 and 293)) (UniProt P09936); test: co-IP; endogenous β-catenin or UCH L1 immunoprecipitated with specific antibodies from KR4 and 293 cell lysates (50 mM Tris-HCl pH 7.6, 1% NP-40, 0.25% Na-deoxycholate, 1 mM EDTA), protein A/G Sepharose, 4°C; Western blot; normal mouse and rabbit immunoglobulins as controls

Question: “β-catenin (endogenous) (from UniProt P35222 1-781)” was tested. Which binding (HA-UCH L1 C90S) did it give?
Answer: Its binding is “no binding”.

Question: And the binding (HA-UCH L1 H161D)?
Answer: Its binding is “no binding”.

Question: What about the binding (HA-UCH L1 wild type) of the same substance?
Answer: The binding was “binds”.

Question: And the binding [1]?
Answer: The binding was “binds”.
